PubChem BioAssay AID686938 – Drosophila RNAi Screening Center, 2013

Test: 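Knock-downs reducing store-operated calcium influx in Drosophila cells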 (primary screen)
System: Drosophila S2R+ cells
Knock-down reagent: long dsRNA against Drosophila genes, about 0.25 µg dsRNA per well, roughly 10,000 cells
Timing: 5 days of knock-down before the calcium assay
Challenge: thapsigargin (SERCA pump blocker) to empty calcium stores; entry signal taken 4 min after adding it
Read-out: 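Per-well fluo-4 fluorescence in two replicates, unnormalised, measured in resting cells and 4 min after store depletion by the SERCA blocker thapsigargin; ratio of the two present in few wells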
Direction: calcium entry signal: higher = stronger calcium signal after store depletion; entry to resting ratio: higher = more calcium entry relative to resting level; resting calcium signal: higher = higher resting calcium signal
Units: calcium entry signal in fluorescence units; resting calcium signal in fluorescence units
Hit rule: 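Hit if the duplicate-averaged plate z-score for entry over resting signal is under −3; wells with weak total dye signal (Fmax z < −2) or more than 5 off-targets removed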
Calls: active = strongly reduced calcium entry; inactive = no strong reduction
In all, the deposit lists about 23,000 reagents; below is a random part of those with a known target gene and a result. Of all reagents, 75 (0.33%) are marked active. 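Raw plate signals without normalisation; calls rest on plate z-scores that were not deposited; ratio present for only 364 wells.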 Names joined by + are all predicted targets of the reagent. Not given: the dose of the treatment.

gene	amplicon	calcium entry signal, replicate 1	calcium entry signal, replicate 2	entry to resting ratio	resting calcium signal, replicate 1	resting calcium signal, replicate 2	Outcome
Dhod (Dihydroorotate dehydrogenase)	DRSC16647	2.23e7	2.97e7		1.05e7	1.40e7	inactive
U4-U6-60K (U4-U6 small nuclear riboprotein factor 60K)	DRSC10624	2.96e7	3.28e7		1.57e7	2.55e7	inactive
CG13050	DRSC09931	3.26e7	6.09e7		1.62e7	2.23e7	inactive
CG10431	DRSC02055	4.38e7	5.55e7		2.28e7	2.26e7	inactive
sbr (small bristles)	DRSC19770	2.37e7	4.01e7		1.60e7	2.45e7	inactive
sbr (small bristles)	DRSC20368	2.34e7	2.74e7		1.56e7	1.95e7	inactive
Arf4 (ADP ribosylation factor 4)	DRSC17195	4.75e7	4.59e7	1.7	2.74e7	2.79e7	inactive
Notum	DRSC09959	3.99e7	4.53e7		1.86e7	1.69e7	inactive
Tnpo (Transportin)	DRSC11309	3.16e7	2.44e7		2.11e7	1.18e7	inactive
CG34135 + CG11768	DRSC12702	4.17e7	5.51e7		1.91e7	2.52e7	inactive
eloF (elongase F)	DRSC15162	3.64e7	4.37e7		1.77e7	2.19e7	inactive
CG31199	DRSC15284	3.86e7	3.71e7		1.96e7	1.64e7	inactive
prtp (pretaporter)	DRSC19804	2.89e7	5.10e7		1.37e7	2.43e7	inactive
prtp (pretaporter)	DRSC22494	4.33e7	4.16e7		2.69e7	1.94e7	inactive
CG5986	DRSC15931	4.27e7	3.20e7		2.01e7	1.50e7	inactive
pdgy (pudgy)	DRSC19064	3.87e7	4.07e7		1.88e7	1.89e7	inactive
pdgy (pudgy)	DRSC19341	3.21e7	4.31e7		1.64e7	1.89e7	inactive
Der-1 (Derlin-1)	DRSC00301	3.61e7			2.34e7		inactive
CG13063	DRSC09946	4.62e7	5.45e7		2.06e7	2.34e7	inactive
Zn72D (Zinc-finger protein at 72D)	DRSC11318	3.25e7	3.91e7		1.61e7	3.11e7	inactive
CG8087	DRSC16375	3.07e7	3.94e7		1.48e7	5.46e7	inactive
BomS5 (Bomanin Short 5)	DRSC22306	2.84e7	4.59e7		1.47e7	2.18e7	inactive
CG6652	DRSC10686	3.17e7	4.68e7		1.43e7	2.93e7	inactive
CG13001	DRSC19520	4.16e7	4.29e7		1.98e7	1.90e7	inactive
CG13001	DRSC22443	3.87e7	3.89e7		1.88e7	1.88e7	inactive

Records above whose gene name starts with D or d (2):
gene	amplicon	calcium entry signal, replicate 1	calcium entry signal, replicate 2	entry to resting ratio	resting calcium signal, replicate 1	resting calcium signal, replicate 2	Outcome
Dhod (Dihydroorotate dehydrogenase)	DRSC16647	2.23e7	2.97e7		1.05e7	1.40e7	inactive
Der-1 (Derlin-1)	DRSC00301	3.61e7			2.34e7		inactive
